# Reference: the supplement of paper PMC10398353
# Counter-ions that a name gives are not always drawn. ± gives the standard deviation of the averaged measurements. Some of the results follow. The data scatter; read single values as rough.
# System: Salmonella enterica serovar Typhimurium ST313 D23580
# Assay: normalized bacterial growth (OD600 20 h minus 0 h, interquartile-mean normalized) (fraction of plate interquartile mean); higher = more bacterial growth (less inhibition)
# Settings: LPM (pH 5.8, low phosphate, low Mg2+), concentration: 10 µM, temperature: 37 °C
row,SMILES,normalized bacterial growth
1,O=C(O)C1=CCNCC1 [Isoguvacine hydrochloride],1.04
2,CNC(=C[N+](=O)[O-])NCCSCc1csc(CN(C)C)n1 [Nizatidine],1.02
3,CNC(=C[N+](=O)[O-])NCCSCc1csc(CN(C)C)n1,0.873
4,CCC1=C[C@@H]2CN(C1)Cc1c([nH]c3ccccc13)[C@@](C(=O)OC)(c1cc3c(cc1OC)N(C)[C@H]1[C@@](O)(C(=O)OC)[C@H](OC(C)=O)[C@]4(CC)C=CCN5CC[C@]31[C@@H]54)C2,0.992
5,CC1(C)[C@@H](O[C@H]2O[C@H](C(=O)O)[C@@H](O)[C@H](O)[C@H]2O[C@@H]2O[C@H](C(=O)O)[C@@H](O)[C@H](O)[C@H]2O)CC[C@]2(C)[C@H]3C(=O)C=C4[C@@H]5C[C@@](C)(C(=O)O)CC[C@]5(C)CC[C@@]4(C)[C@]3(C)CC[C@@H]12,1.09
6,CCOC(=O)CCC(=O)O[C@H]1[C@H](O[C@@H]2[C@@H](C)[C@H](O[C@H]3C[C@@](C)(OC)[C@@H](O)[C@H](C)O3)[C@@H](C)C(=O)O[C@H](CC)[C@@](C)(O)[C@H](O)[C@@H](C)C(=O)[C@H](C)C[C@@]2(C)O)O[C@H](C)C[C@@H]1N(C)C,1.11
7,C[C@]12C=CC(=O)C=C1CC[C@@H]1[C@@H]2C(=O)C[C@@]2(C)[C@H]1CC[C@]2(O)C(=O)CO [Prednisone],1.03
8,C[C@]12C=CC(=O)C=C1CC[C@@H]1[C@@H]2C(=O)C[C@@]2(C)[C@H]1CC[C@]2(O)C(=O)CO,1.05
9,C[C@]12C=CC(=O)C=C1CC[C@@H]1C2=CC[C@]2(C)[C@@H](C(=O)CN3CCN(c4cc(N5CCCC5)nc(N5CCCC5)n4)CC3)CC[C@@H]12,1.22
10,C[C@@H]1O[C@@H]1P(=O)(O)O [Phosphomycin disodium],1.15
11,Cn1c(=O)c2[nH]c(-c3ccc(S(=O)(=O)O)cc3)nc2n(C)c1=O [8-(p-Sulfophenyl)theophylline],1.14
12,CCCCCCCCCCC(C)(C)C(=O)Nc1c(OC)cc(OC)cc1OC,0.73
13,CCn1cc(C(=O)O)c(=O)c2cc(F)c(N3CCN(C)CC3)cc21,0.576
14,CC[C@]12CCCN3CCc4c(n(c5ccccc45)C(=O)C1)[C@@H]32,0.857
15,CCCCC(=O)Oc1ccccc1C(=O)O,1.29
16,CC(N)(C(=O)O)c1ccc(C(=O)O)cc1 (stereo not drawn) [()-alpha-Methyl-4-carboxyphenylglycine],1.24
17,CC#CCOC(=O)c1c(C)nc2sc3c(c2c1N)CCC(O)C3 (stereo unspecified),0.944
18,COc1cc2c(cc1OC)[C@@H](c1ccccc1)CN(C)CC2,1.13
19,NC(=O)c1ncn([C@@H]2O[C@H](CO)[C@@H](O)[C@H]2O)c1N,1.12
20,CC1=C(/C=C/C(C)=C/C=C/C(C)=C/C(=O)Nc2ccc(O)cc2)C(C)(C)CCC1 [Retinoic acid p-hydroxyanilide],0.702
21,CCC(=O)O[C@H]1[C@H](O[C@@H]2[C@@H](C)[C@H](O[C@H]3C[C@@](C)(OC)[C@@H](O)[C@H](C)O3)[C@@H](C)C(=O)O[C@H](CC)[C@@](C)(O)[C@H](O)[C@@H](C)C(=O)[C@H](C)C[C@@]2(C)O)O[C@H](C)C[C@@H]1N(C)C,0.946
22,Nc1ncnc2c1ncn2[C@@H]1O[C@H](COP(=O)(O)O)[C@@H](O)[C@H]1O,0.264
23,O=C(O)c1cc(O)c2c(c1)[C@H]([C@H]1c3cc(C(=O)O)cc(O)c3C(=O)c3c(O[C@@H]4O[C@H](CO)[C@@H](O)[C@H](O)[C@H]4O)cccc31)c1cccc(O[C@@H]3O[C@H](CO)[C@@H](O)[C@H](O)[C@H]3O)c1C2=O,0.849
24,CC(=O)Oc1cc(C(C)C)c(OCCN(C)C)cc1C [Moxisylyte hydrochloride],0.95
25,CC(c1cc2ccccc2s1)N(O)C(N)=O (stereo unspecified),1.04
26,C[C@@H]1C(=O)O[C@H]2C[C@@]34[C@H]5C[C@@H](C(C)(C)C)[C@]36[C@@H](OC(=O)[C@@H]6O)O[C@@]4(C(=O)O5)[C@]21O [Ginkgolide A],1.17

# Quoted at random: three entries already listed.
row,SMILES,normalized bacterial growth
2,CNC(=C[N+](=O)[O-])NCCSCc1csc(CN(C)C)n1 [Nizatidine],1.02
3,CNC(=C[N+](=O)[O-])NCCSCc1csc(CN(C)C)n1,0.873
20,CC1=C(/C=C/C(C)=C/C=C/C(C)=C/C(=O)Nc2ccc(O)cc2)C(C)(C)CCC1 [Retinoic acid p-hydroxyanilide],0.702

# The list continues:

row,SMILES,normalized bacterial growth
1,C[C@@H]1C(=O)O[C@H]2C[C@@]34[C@H]5C[C@@H](C(C)(C)C)[C@]36[C@@H](OC(=O)[C@@H]6O)O[C@@]4(C(=O)O5)[C@]21O,0.967 ± 0.011
2,C[n+]1cccc(C(=O)[O-])c1,0.954 ± 0.11
3,NS(=O)(=O)c1cc2c(cc1Cl)NCNS2(=O)=O [Hydrochlorothiazide],1.21
4,CC(=O)O[C@H]1CC[C@]2(C)[C@H]3CC=C4[C@@H]5CC(C)(C)CC[C@]5(C)CC[C@@]4(C)[C@]3(C)CC[C@H]2C1(C)C [beta-AMYRIN ACETATE],0.768
5,C[N+]1(C)CCC(=C(c2ccccc2)c2ccccc2)CC1 [Diphemanil methylsulfate],0.973
6,COc1cc(/C=C/C(=O)O)ccc1O,1.15
7,CN(C)CCc1c[nH]c2ccc(C[C@H]3COC(=O)N3)cc12,1.05
8,CN(C)CCC=C1c2ccccc2C=Cc2ccccc21 [Cyclobenzaprine hydrochloride],0.916
9,O=C1c2cccc(O)c2C(=O)c2c(O)cc(CO)cc21,1.07
10,O=c1[nH]c(=O)n([C@H]2C[C@H](O)[C@@H](CO)O2)cc1F,0.0905
11,C[C@H]1C[C@H]2[C@@H]3CCC4=CC(=O)C=C[C@]4(C)[C@@]3(Cl)[C@@H](O)C[C@]2(C)[C@@]1(O)C(=O)CO [Beclomethasone],0.899
12,Oc1ccc(O)cc1 [Hydroquinone],0.976
13,COc1cc2nc(N3CCN(C(=O)C4CCCO4)CC3)nc(N)c2cc1OC (stereo unspecified) [Terazosin hydrochloride],1.06
14,CC1CCC(NC(=O)N(CCCl)N=O)CC1 (stereo unspecified),0.974
15,CC1=C2C(O)C(=O)OC3CC4C(C)(C)C(=O)C=C[C@]4(C)C(CC1)[C@]23C (stereo partly specified),1.03
16,Cc1nc(N=Nc2ccc(C(=O)O)cc2)c(COP(=O)(O)O)c(C=O)c1O,1.17
17,CCCc1cc(OC)c2c(c1)OCO2,0.879
18,CC(C)(O)CC[C@@H](O)[C@](C)(O)[C@H]1CC[C@@]2(O)C3=CC(=O)[C@@H]4C[C@@H](O)[C@@H](O)C[C@]4(C)[C@H]3CC[C@]12C,1.07
19,Nc1ccc(S(=O)(=O)Nc2ccc(Cl)nn2)cc1,1.22
20,COC1=C(O)C(=O)c2c(cc3oc(C(C)=O)c(O)c3c2O)C1=O,1.1
21,COc1cc(O)c(C(C)=O)c(OC)c1,1.34
22,O=C1c2c(O)cc(O)cc2OC(c2ccc(O)c(O)c2)C1O (stereo unspecified) [()-Taxifolin],1.12
23,O=C1c2c(O)cc(O)cc2OC(c2ccc(O)c(O)c2)C1O (stereo unspecified),0.975
24,CN(C)CCCOc1nn(Cc2ccccc2)c2ccccc12,0.759
25,CCCCCCCCCCCCCc1ccco1,1.02
26,O=c1c(O)c(-c2ccccc2O)oc2cc(O)cc(O)c12,1.35

row,SMILES,normalized bacterial growth
1,Cn1cc(C(=O)OCC2CCN(CCNS(C)(=O)=O)CC2)c2ccccc21,1.01
2,OC[C@@H](O)[C@@H](O)[C@H](O)[C@@H](O)CO,0.856
3,CCCCC(=O)O[C@]1(C(=O)CO)[C@@H](C)C[C@H]2[C@@H]3CCC4=CC(=O)C=C[C@]4(C)[C@@]3(F)[C@@H](O)C[C@@]21C,0.782
4,CNCC[C@H](Oc1ccc(C(F)(F)F)cc1)c1ccccc1 [S-(+)-Fluoxetine hydrochloride],1.18
5,COc1cc(C(=O)N2CCOCC2)cc(OC)c1OC,1.32
6,CC(=O)OCC(=O)[C@@]1(O)CC[C@H]2[C@@H]3CCC4=CC(=O)CC[C@]4(C)[C@H]3C(=O)C[C@@]21C,1.22
7,CC(=O)OCC(=O)[C@@]1(O)CC[C@H]2[C@@H]3CCC4=CC(=O)CC[C@]4(C)[C@H]3C(=O)C[C@@]21C [Cortisone 21-acetate],1.13
8,CC(=O)OCC(=O)[C@@]1(O)CC[C@H]2[C@@H]3CCC4=CC(=O)C=C[C@]4(C)[C@@]3(F)[C@@H](O)C[C@@]21C [Isoflupredone acetate],1.07
9,COc1c2occc2cc2ccc(=O)oc12,0.973
10,N=C(NCCCCCCNC(=N)NC(=N)Nc1ccc(Cl)cc1)NC(=N)Nc1ccc(Cl)cc1 [Chlorhexidine],1.05
11,N=C(NCCCCCCNC(=N)NC(=N)Nc1ccc(Cl)cc1)NC(=N)Nc1ccc(Cl)cc1,0.849
12,NCc1ccccc1CC(=O)N[C@@H]1C(=O)N2C(C(=O)O)=C(CSc3nnnn3CC(=O)O)CS[C@H]12 [Ceforanide],0.95
13,CN1CCN(C2=Nc3ccccc3Oc3ccc(Cl)cc32)CC1 [Loxapine succinate],0.882
14,COC(=O)c1cc(O)c(=O)c2c(O)c(O)ccc2c1,0.911
15,C[N+]1(C)CCC(OC(=O)C(O)(c2ccccc2)C2CCCC2)C1 (stereo unspecified),1.1
16,CCCCCCCCCCCCCCCCCCOCC(O)CO (stereo unspecified),1.28
17,C[C@@H]1C[C@H]2O[C@@H]2/C=C\C=C\C(=O)Cc2c(Cl)c(O)cc(O)c2C(=O)O1,1.24
18,Clc1ccc(CCC(Cn2ccnc2)Sc2c(Cl)cccc2Cl)cc1 (stereo unspecified) [Butoconazole nitrate],0.675
19,CCCCCc1c2c(cc(O)c1C(=O)O)OC(=O)c1c(cc(OC)cc1C(=O)CCCC)O2,0.777
20,COC1=C[C@@H](C)[C@@H]2C[C@H]3OC(=O)C[C@H]4C(C)=C(OC)C(=O)[C@H]([C@@]2(C)C1=O)[C@@]34C,0.984 ± 0.082
21,C[C@@H]1C[C@H]2[C@@H]3C[C@H](F)C4=CC(=O)C=C[C@]4(C)[C@@]3(F)[C@@H](O)C[C@]2(C)[C@@]1(O)C(=O)CO [Flumethasone],1.23
22,O=C(O)Cc1ccc(-c2ccccc2)cc1 [Felbinac],1.18
23,O=C(O)c1cn(-c2ccc(F)cc2)c2cc(N3CCNCC3)c(F)cc2c1=O,0.126
24,CC[C@H](/C=C/[C@@H](C)[C@H]1CC[C@H]2[C@@H]3CC=C4C[C@@H](O)CC[C@]4(C)[C@H]3CC[C@]12C)C(C)C,0.87
